Record: PubChem BioAssay AID1259258 (Sanger Institute, 2017)
In all, the deposit lists 160 reagents; this is an unselected part. 40 of all reagents (25%) were called active. 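Each row is one of four siRNAs per gene; a gene counts as confirmed only when several of its siRNAs show synergy.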 The numbers tell different reagents against one gene apart. Not all columns of the deposit are shown. Reagent sequences are not shown. Not stated in the record: the amount of reagent, the time to read-out.

- Aim: 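Kinase knock-downs making colon cancer cells more sensitive to BYL719, cetuximab or trametinib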 (follow-up of hits)
- Cells: human SW48 colorectal cancer cells
- Knock-down reagent: single siRNA against human genes
- Conditions: anchor drug cetuximab 5 µg/ml, trametinib 10 nM or BYL719 1 µM, or DMSO vehicle alone; assay length not stated
- Detection: 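Cell viability after siRNA plus DMSO, cetuximab 5 µg/ml, trametinib 10 nM or BYL719 1 µM, scaled to non-targeting pool 2 and replicate-averaged; synergy score weighs combined against single effects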
- Scale: synergy score with trametinib and synergy score with BYL719 and synergy score with cetuximab: higher = stronger synergy, more killing than expected
- Active means: 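Hit when the synergy score is above 0.10 for at least one of trametinib, BYL719 or cetuximab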

How did the screen score RPS6KA4 #1?
synergy score with trametinib: 0.0266; synergy score with BYL719: 0.0105; synergy score with cetuximab: -0.0233; activity call: inactive

Which result is listed for RPS6KA4 #2?
synergy score with trametinib: 0.0634; synergy score with BYL719: 0.0589; synergy score with cetuximab: 0.0902; activity call: inactive

What is on record for RPS6KA4 #3?
synergy score with trametinib: -0.0637; synergy score with BYL719: -0.0538; synergy score with cetuximab: -0.081; activity call: inactive

How did the screen score RPS6KA4 #4?
synergy score with trametinib: 0.0756; synergy score with BYL719: 0.05; synergy score with cetuximab: -0.023; activity call: inactive

Which result is listed for SYNCRIP #1?
synergy score with trametinib: 0.0287; synergy score with BYL719: 0.131; synergy score with cetuximab: 0.0379; activity call: active

What is on record for SYNCRIP #2?
synergy score with trametinib: -0.0282; synergy score with BYL719: 0.0094; synergy score with cetuximab: -0.12; activity call: inactive

How did the screen score SYNCRIP #3?
synergy score with trametinib: 0.119; synergy score with BYL719: -0.00978; synergy score with cetuximab: 0.00327; activity call: active

For SYNCRIP #4, what does the deposit list?
synergy score with trametinib: -0.00274; synergy score with BYL719: -0.0421; synergy score with cetuximab: 0.0446; activity call: inactive

How did the screen score GTF2H1 #1?
synergy score with trametinib: -0.164; synergy score with BYL719: -0.0602; synergy score with cetuximab: -0.0374; activity call: inactive

What did the screen give for GTF2H1 #2?
synergy score with trametinib: -0.228; synergy score with BYL719: -0.111; synergy score with cetuximab: -0.0453; activity call: inactive

Which result is listed for GTF2H1 #3?
synergy score with trametinib: -0.351; synergy score with BYL719: -0.264; synergy score with cetuximab: -0.198; activity call: inactive

For GTF2H1 #4, what does the deposit list?
synergy score with trametinib: -0.0309; synergy score with BYL719: -0.134; synergy score with cetuximab: -0.274; activity call: inactive

A stretch taken from the entries so far:
GTF2H1 #1: synergy score with trametinib = -0.164; synergy score with BYL719 = -0.0602; synergy score with cetuximab = -0.0374; activity call = inactive
GTF2H1 #2: synergy score with trametinib = -0.228; synergy score with BYL719 = -0.111; synergy score with cetuximab = -0.0453; activity call = inactive
